# Results taken from the supplement of paper PMC10849652.
# By UniProt entry, the sequences of proteins in these tests, tags left out. Where a name states a change or a piece, a line headed by the entry shows the natural chain unless it says otherwise.
# UniProt Q16773: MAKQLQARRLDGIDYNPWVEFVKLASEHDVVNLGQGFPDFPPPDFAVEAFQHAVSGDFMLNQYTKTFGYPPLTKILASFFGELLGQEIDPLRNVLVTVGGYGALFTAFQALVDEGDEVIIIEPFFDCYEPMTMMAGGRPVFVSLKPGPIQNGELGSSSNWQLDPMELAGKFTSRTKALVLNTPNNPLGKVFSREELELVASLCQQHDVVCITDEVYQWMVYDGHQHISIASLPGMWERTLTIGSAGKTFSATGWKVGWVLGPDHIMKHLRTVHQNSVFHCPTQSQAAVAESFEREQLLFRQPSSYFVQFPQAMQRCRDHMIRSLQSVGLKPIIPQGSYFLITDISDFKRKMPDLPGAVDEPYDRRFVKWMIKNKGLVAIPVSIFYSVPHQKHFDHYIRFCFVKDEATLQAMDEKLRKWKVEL
# UniProt Q5T3J3: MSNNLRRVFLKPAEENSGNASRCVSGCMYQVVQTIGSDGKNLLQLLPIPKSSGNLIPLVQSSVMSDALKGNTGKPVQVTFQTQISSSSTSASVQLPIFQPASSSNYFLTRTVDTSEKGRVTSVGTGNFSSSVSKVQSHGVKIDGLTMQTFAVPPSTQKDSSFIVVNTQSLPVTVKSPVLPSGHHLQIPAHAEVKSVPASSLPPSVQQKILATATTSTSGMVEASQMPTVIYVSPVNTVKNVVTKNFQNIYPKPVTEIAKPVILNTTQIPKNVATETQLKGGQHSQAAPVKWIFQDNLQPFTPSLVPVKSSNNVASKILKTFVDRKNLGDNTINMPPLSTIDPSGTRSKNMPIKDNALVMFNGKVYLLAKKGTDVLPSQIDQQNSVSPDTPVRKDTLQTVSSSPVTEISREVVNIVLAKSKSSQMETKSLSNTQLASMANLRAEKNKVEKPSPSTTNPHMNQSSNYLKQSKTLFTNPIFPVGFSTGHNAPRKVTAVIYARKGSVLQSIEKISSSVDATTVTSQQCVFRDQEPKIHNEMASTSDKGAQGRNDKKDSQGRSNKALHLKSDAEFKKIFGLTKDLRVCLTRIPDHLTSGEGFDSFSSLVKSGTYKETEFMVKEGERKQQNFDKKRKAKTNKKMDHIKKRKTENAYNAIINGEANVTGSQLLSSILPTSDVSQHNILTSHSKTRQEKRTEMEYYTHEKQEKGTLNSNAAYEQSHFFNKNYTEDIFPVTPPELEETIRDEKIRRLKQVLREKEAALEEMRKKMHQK
# UniProt P49257: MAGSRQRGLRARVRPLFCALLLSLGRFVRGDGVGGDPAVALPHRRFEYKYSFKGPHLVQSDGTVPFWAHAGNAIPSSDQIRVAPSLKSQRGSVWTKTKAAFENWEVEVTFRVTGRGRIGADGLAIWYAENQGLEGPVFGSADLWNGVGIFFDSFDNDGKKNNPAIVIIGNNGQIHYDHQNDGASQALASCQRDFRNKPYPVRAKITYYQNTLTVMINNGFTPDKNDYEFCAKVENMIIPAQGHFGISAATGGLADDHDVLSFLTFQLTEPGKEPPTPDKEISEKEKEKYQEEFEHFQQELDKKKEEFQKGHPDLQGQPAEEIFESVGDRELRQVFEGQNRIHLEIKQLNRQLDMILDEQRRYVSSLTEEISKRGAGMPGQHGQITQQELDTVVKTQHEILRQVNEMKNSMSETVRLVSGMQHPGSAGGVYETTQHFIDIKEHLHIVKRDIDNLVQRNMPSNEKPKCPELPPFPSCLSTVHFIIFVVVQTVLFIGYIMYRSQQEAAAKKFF
# UniProt Q9C0E8: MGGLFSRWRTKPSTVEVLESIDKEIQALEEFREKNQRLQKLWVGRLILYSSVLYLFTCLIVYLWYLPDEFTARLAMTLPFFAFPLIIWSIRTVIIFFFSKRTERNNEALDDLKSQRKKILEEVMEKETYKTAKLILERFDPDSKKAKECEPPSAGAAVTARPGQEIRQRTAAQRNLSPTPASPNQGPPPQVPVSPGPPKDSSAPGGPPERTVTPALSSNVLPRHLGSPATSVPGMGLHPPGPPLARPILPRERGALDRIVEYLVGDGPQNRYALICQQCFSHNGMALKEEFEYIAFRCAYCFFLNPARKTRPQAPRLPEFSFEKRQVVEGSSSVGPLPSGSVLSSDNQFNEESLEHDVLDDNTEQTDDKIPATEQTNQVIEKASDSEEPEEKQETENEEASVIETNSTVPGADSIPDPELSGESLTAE
# UniProt P30533, whole entry, looked up: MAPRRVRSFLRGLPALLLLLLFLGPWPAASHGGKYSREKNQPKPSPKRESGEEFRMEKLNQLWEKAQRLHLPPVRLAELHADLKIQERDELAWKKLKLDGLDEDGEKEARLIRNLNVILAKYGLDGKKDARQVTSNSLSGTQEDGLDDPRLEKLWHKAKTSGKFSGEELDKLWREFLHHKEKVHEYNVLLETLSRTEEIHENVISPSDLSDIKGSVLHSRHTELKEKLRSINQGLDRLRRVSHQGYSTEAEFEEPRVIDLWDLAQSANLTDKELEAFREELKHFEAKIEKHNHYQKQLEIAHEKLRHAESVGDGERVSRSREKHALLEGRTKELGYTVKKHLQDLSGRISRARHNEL
# UniProt Q9NUP9: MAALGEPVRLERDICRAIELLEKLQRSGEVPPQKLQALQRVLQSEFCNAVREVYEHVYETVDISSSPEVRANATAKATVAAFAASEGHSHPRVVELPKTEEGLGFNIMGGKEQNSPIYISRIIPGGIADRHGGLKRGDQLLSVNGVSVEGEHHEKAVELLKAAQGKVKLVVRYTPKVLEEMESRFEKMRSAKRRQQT
# UniProt P83111: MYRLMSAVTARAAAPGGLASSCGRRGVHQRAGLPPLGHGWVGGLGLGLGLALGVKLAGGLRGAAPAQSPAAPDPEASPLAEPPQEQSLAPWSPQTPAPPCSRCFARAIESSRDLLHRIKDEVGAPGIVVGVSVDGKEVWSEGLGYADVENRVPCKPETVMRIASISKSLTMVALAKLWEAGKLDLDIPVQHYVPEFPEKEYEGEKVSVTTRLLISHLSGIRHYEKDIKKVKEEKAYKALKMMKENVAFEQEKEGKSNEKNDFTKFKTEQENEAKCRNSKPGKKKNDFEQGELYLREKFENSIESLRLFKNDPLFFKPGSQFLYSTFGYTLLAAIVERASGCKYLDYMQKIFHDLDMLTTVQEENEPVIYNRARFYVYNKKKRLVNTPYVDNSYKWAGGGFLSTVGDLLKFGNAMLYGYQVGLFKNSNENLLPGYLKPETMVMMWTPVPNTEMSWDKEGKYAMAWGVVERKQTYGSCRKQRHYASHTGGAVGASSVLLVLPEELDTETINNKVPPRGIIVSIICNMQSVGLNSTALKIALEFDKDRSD
# UniProt Q4G0J3: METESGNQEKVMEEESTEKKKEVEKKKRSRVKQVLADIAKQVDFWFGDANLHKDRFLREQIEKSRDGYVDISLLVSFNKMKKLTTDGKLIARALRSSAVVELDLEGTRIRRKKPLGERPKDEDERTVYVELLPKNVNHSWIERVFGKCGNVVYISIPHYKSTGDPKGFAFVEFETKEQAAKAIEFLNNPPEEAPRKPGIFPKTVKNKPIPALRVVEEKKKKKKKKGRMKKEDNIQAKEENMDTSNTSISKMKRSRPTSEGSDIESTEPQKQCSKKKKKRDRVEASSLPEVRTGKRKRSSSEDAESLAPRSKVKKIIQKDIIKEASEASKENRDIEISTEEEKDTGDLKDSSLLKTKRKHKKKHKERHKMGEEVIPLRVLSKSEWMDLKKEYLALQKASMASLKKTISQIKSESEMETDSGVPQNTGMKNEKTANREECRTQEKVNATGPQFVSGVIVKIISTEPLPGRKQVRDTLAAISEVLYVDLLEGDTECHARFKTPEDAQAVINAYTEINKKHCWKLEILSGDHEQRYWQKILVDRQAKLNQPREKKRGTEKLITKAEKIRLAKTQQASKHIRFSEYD
# UniProt Q14693: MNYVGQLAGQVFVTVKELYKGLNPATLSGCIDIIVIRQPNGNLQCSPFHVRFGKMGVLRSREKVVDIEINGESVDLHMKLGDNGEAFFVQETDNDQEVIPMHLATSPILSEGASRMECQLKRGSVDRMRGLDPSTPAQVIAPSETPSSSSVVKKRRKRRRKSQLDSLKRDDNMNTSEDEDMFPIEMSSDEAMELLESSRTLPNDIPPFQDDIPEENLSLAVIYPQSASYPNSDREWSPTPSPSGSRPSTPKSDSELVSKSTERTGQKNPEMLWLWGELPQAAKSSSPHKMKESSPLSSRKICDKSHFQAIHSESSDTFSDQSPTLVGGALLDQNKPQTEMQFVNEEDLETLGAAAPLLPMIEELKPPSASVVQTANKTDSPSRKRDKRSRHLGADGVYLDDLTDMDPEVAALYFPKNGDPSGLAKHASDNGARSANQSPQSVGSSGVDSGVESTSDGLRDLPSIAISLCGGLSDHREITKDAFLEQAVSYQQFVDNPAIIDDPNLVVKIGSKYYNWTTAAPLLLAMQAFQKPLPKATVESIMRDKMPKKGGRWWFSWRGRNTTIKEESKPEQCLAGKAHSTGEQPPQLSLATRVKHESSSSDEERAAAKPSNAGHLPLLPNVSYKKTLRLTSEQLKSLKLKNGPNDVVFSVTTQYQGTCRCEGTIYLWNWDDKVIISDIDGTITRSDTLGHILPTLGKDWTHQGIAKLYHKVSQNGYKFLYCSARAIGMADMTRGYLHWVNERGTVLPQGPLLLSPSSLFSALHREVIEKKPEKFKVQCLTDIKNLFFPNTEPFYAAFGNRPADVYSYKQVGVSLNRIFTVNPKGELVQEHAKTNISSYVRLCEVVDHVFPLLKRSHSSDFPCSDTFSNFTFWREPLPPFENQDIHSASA
# UniProt Q6P1Q0: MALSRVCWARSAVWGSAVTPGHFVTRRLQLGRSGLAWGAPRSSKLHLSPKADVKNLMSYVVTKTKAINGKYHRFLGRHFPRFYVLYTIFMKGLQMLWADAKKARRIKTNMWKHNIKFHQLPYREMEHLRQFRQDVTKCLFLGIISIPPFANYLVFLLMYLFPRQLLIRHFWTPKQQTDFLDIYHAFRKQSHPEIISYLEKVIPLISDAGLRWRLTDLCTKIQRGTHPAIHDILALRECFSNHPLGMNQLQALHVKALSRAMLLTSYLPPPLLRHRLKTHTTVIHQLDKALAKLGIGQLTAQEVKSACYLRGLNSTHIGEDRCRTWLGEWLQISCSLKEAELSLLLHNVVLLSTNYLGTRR
# UniProt Q92539: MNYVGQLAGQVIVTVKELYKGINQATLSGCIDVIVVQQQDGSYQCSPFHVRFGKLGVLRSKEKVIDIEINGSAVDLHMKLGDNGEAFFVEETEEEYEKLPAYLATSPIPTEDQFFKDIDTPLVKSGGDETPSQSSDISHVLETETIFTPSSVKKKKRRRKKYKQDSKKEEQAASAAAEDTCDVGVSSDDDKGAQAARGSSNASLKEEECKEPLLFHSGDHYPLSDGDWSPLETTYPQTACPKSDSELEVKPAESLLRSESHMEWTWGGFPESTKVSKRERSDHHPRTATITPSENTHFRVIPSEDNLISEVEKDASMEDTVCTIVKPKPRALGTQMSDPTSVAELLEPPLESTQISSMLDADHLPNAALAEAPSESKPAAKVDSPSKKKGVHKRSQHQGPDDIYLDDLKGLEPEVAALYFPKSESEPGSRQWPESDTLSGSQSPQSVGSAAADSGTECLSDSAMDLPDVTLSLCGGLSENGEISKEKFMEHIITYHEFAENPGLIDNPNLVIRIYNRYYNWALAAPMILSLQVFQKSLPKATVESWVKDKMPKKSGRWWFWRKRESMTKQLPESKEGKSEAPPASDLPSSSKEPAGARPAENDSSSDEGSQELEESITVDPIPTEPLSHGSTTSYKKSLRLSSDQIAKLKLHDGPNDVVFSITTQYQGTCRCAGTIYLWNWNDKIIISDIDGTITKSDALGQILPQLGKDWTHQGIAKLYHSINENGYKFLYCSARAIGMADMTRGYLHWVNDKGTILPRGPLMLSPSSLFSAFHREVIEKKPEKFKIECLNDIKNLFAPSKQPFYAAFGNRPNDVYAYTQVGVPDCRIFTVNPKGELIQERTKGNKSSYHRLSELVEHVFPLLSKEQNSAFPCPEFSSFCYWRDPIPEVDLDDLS
# UniProt P09382, whole entry, looked up: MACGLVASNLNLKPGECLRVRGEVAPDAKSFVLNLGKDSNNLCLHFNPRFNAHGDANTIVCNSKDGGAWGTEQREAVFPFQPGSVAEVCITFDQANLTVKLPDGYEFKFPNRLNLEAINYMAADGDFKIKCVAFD
# UniProt P25791: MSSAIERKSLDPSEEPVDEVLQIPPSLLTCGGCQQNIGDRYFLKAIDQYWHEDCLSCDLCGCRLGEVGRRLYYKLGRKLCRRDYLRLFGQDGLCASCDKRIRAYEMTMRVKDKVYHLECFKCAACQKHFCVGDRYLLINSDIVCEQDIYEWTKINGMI
# This is one part of the list.
# Key:
# Test in all cases: log2 fold change, soluble protein after heating vs DMSO (PISA); higher = thermal stabilisation; K562 cells, 10 uM, 30 min; active = over 0.2 and 3.5 SD of the protein, either way, in both replicates (recomputed)
# [1] = compound: CC[C@@H]1C(=O)N(C)c2cnc(Nc3ccc(C(=O)NC4CCN(C)CC4)cc3OC)nc2N1C1CCCC1
# In short: (§1)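 Aliquots of K562 cells (2×10^6 cells/mL) treated with 10 μM compound for 30 min were heated for 3 min over 48°C-58°C. After pooling and extraction in PBS with 0.5% NP-40 at 4°C, soluble protein from a 21,000xg, 90 min spin was quantified by TMTpro 16plex LC-MS/MS with channel sums equalised. Thermal stability is expressed against control samples, from duplicates, as a log2 fold change.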
# volasertib = compound: CC[C@@H]1C(=O)N(C)c2cnc(Nc3ccc(C(=O)N[C@H]4CC[C@H](N5CCN(CC6CC6)CC5)CC4)cc3OC)nc2N1C(C)C [volasertib]
# In short: as §1
# [2] = compound: CC[C@H](C)N1C=C(C2=C(C=C(C=C21)C3=CN=C(C=C3)N4CCNCC4)C(=O)NCC5=C(C=C(NC5=O)C)C)C
# In short: as §1
# epoxomicin = compound: CC[C@H](C)[C@@H](C(=O)N[C@@H]([C@@H](C)O)C(=O)N[C@@H](CC(C)C)C(=O)[C@]1(CO1)C)NC(=O)[C@H]([C@@H](C)CC)N(C)C(=O)C [epoxomicin]
# In short: as §1
# [3] = compound: CCn1c(C(=O)N(C2CC2)C2CC2)cc2c3c(ncn3C)c(Nc3cc(C)n(C)n3)nc21
# In short: as §1
# [4] = compound: CCn1cc(-c2ccnc3[nH]c(-c4cccc(CN(C)C)c4)cc23)c(-c2ccc(NC(=O)N(C)C)cc2)n1
# In short: as §1
# rosiglitazone = compound: CN(CCOC1=CC=C(C=C1)C[C@H]2C(=O)NC(=O)S2)C3=CC=CC=N3 (racemic) [rosiglitazone]
# In short: as §1
# [5] = compound: CN1CCC(CNc2ccc3ncc(-c4cccc(OC(F)(F)F)c4)n3n2)CC1
# In short: as §1
# alvocidib = compound: CN1CC[C@H](c2c(O)cc(O)c3c(=O)cc(-c4ccccc4Cl)oc23)[C@H](O)C1 [alvocidib]
# In short: as §1
# [6] = compound: CNC(=O)C1=CC=CC=C1NC2=NC(=NC=C2Cl)NC3=C(C=C(C=C3)N4CCOCC4)OC
# In short: as §1
# rucaparib = compound: CNCc1ccc(-c2[nH]c3cc(F)cc4c3c2CCNC4=O)cc1 [rucaparib]
# In short: as §1
# encorafenib = compound: COC(=O)N[C@@H](C)CNc1nccc(-c2cn(C(C)C)nc2-c2cc(Cl)cc(NS(C)(=O)=O)c2F)n1 [encorafenib]
# In short: as §1
# [7] = compound: CN(C)CC(=O)Nc1ccc2[nH]c(=O)c3ccccc3c2c1
# In short: as §1
# [8] = compound: CN1C2=C(C3=C1C(=O)N(N=C3)CC4=CC(=CC=C4)N)SC(=C2)S(=O)C
# In short: as §1
# saracatinib = compound: CN1CCN(CCOc2cc(OC3CCOCC3)c3c(Nc4c(Cl)ccc5c4OCO5)ncnc3c2)CC1 [saracatinib]
# In short: as §1
# sotrastaurin = compound: CN1CCN(c2nc(C3=C(c4c[nH]c5ccccc45)C(=O)NC3=O)c3ccccc3n2)CC1 [sotrastaurin]
# In short: as §1
# Tubastatin A = compound: CN1CCc2c(c3ccccc3n2Cc2ccc(C(=O)NO)cc2)C1 [Tubastatin A]
# In short: as §1
# defactinib = compound: CNC(=O)c1ccc(Nc2ncc(C(F)(F)F)c(NCc3nccnc3N(C)S(C)(=O)=O)n2)cc1 [defactinib]
# In short: as §1
# [9] = compound: CNc1nc(-c2ccc3c(N)n[nH]c3c2)cc(N2C[C@@H](C(=O)NC3CCCCC3)CC[C@H]2C)n1
# In short: as §1
# [10] = compound: COC(=O)[C@H](CCSC)NC(=O)C1=C(C=C(C=C1)NC[C@H](CS)N)C2=CC=CC=C2
# In short: as §1
Target,log2 fold change [1],log2 fold change (volasertib),log2 fold change [2],log2 fold change (epoxomicin),log2 fold change [3],log2 fold change [4],log2 fold change (rosiglitazone),log2 fold change [5],log2 fold change (alvocidib),log2 fold change [6],log2 fold change (rucaparib),log2 fold change (encorafenib),log2 fold change [7],log2 fold change [8],log2 fold change (saracatinib),log2 fold change (sotrastaurin),log2 fold change (Tubastatin A),log2 fold change (defactinib),log2 fold change [9],log2 fold change [10]
LLGL2 (UniProt Q6P1M3),inactive: 0.046,inactive: 0.075,inactive: 0.023,inactive: -0.091,inactive: -0.009,inactive: 0.12,inactive: 0.001,inactive: -0.051,inactive: 0.219,inactive: -0.104,inactive: 0.179,inactive: 0.02,,,,,,,,
KYAT1 (UniProt Q16773),inactive: 0.021,inactive: -0.075,inactive: -0.008,inactive: -0.026,inactive: -0.004,inactive: -0.054,inactive: -0.001,inactive: -0.045,inactive: 0.019,inactive: -0.064,inactive: -0.062,inactive: 0.011,inactive: 0.066,inactive: -0.05,inactive: 0.027,inactive: -0.001,inactive: 0.167,inactive: -0.027,inactive: -0.01,inactive: 0.002
LRIF1 (UniProt Q5T3J3),inactive: 0.06,inactive: 0.044,inactive: -0.032,inactive: -0.055,inactive: -0.02,inactive: 0.055,inactive: -0.096,inactive: -0.062,inactive: -0.19,inactive: -0.07,inactive: 0.075,inactive: -0.11,inactive: 0.027,inactive: -0.123,inactive: 0.071,inactive: 0.087,inactive: 0.059,inactive: -0.03,inactive: -0.035,inactive: -0.107
LMAN1 (UniProt P49257),inactive: -0.055,inactive: -0.045,inactive: 0.02,inactive: 0.008,inactive: 0.012,inactive: -0.001,inactive: -0.011,inactive: -0.127,inactive: -0.002,inactive: -0.01,inactive: 0.011,inactive: -0.007,inactive: -0.043,inactive: 0.01,inactive: -0.033,inactive: -0.012,inactive: -0.025,inactive: 0.002,inactive: -0.152,inactive: 0.018
LNPK (UniProt Q9C0E8),inactive: 0.02,inactive: 0.024,inactive: -0.038,inactive: -0.007,,inactive: 0.018,,inactive: 0.059,,inactive: 0.012,inactive: -0.015,inactive: -0.013,inactive: -0.042,inactive: 0.012,inactive: 0.085,inactive: 0.047,inactive: -0.034,inactive: 0.009,inactive: -0.045,inactive: 0.039
LRPAP1 (UniProt P30533),inactive: -0.002,inactive: 0.066,inactive: 0.008,inactive: 0.013,inactive: 0.045,inactive: -0.017,inactive: -0.003,inactive: 0.059,inactive: 0.011,inactive: 0.003,inactive: -0.058,inactive: -0.015,inactive: -0.032,inactive: -0.061,inactive: 0.014,inactive: 0.061,inactive: 0,inactive: -0.012,inactive: -0.041,inactive: 0.027
LIN7C (UniProt Q9NUP9),inactive: 0.028,inactive: -0.001,inactive: -0.018,inactive: 0.056,inactive: -0.019,inactive: -0.018,inactive: -0.006,inactive: -0.048,inactive: -0.056,inactive: -0.027,inactive: -0.005,inactive: -0.036,inactive: -0.022,inactive: -0.111,inactive: 0.039,inactive: -0.018,inactive: -0.016,inactive: 0.059,inactive: -0.151,inactive: 0.028
LRBA (UniProt P50851),inactive: -0.05,active: -0.221,inactive: 0.034,inactive: 0.017,,inactive: -0.074,,inactive: -0.139,,inactive: -0.012,inactive: -0.01,inactive: 0.018,inactive: 0.008,inactive: -0.057,inactive: 0.039,inactive: -0.031,inactive: 0.014,inactive: -0.015,inactive: -0.023,inactive: -0.002
LACTB (UniProt P83111),inactive: 0.005,inactive: -0.132,inactive: -0.076,inactive: -0.067,inactive: 0.073,inactive: 0.065,inactive: -0.044,inactive: 0.007,inactive: 0.1,inactive: -0.004,inactive: 0.149,inactive: 0.007,inactive: -0.143,inactive: 0.218,inactive: -0.078,inactive: -0.121,inactive: -0.015,inactive: 0.074,inactive: -0.035,inactive: -0.254
LARP7 isoform 3 (UniProt Q4G0J3),inactive: -0.047,inactive: -0.155,inactive: 0.051,inactive: -0.081,,inactive: -0.032,,inactive: -0.075,active: -0.234,inactive: -0.04,inactive: -0.164,inactive: 0.034,inactive: 0.064,inactive: 0.014,inactive: 0.015,inactive: -0.076,inactive: -0.002,active: -0.328,inactive: 0.003,inactive: -0.019
LPIN1 isoform 7 (UniProt Q14693),inactive: 0.06,inactive: -0.002,inactive: 0.063,inactive: 0.098,,inactive: -0.045,,inactive: -0.016,,inactive: -0.113,inactive: -0.054,inactive: 0.009,inactive: 0.012,inactive: 0.008,inactive: 0.003,inactive: -0.093,inactive: 0.041,inactive: -0.03,inactive: -0.13,inactive: 0.035
LETMD1 isoform 7 (UniProt Q6P1Q0),inactive: -0.048,inactive: -0.068,inactive: 0.058,inactive: -0.042,inactive: 0.033,inactive: 0.08,inactive: 0.064,inactive: -0.111,,inactive: 0.072,inactive: -0.026,inactive: 0.06,,inactive: -0.07,inactive: 0.053,inactive: 0.018,inactive: 0.288,,inactive: 0.021,
LPIN2 (UniProt Q92539),inactive: 0.012,inactive: -0.105,inactive: 0.059,inactive: 0.026,inactive: -0.028,inactive: 0.071,inactive: -0.024,inactive: -0.058,inactive: 0.014,inactive: -0.148,inactive: -0.046,inactive: -0.14,inactive: -0.054,inactive: -0.037,inactive: 0.033,inactive: -0.005,inactive: 0.027,inactive: 0.015,inactive: 0.007,inactive: -0.031
LAMTOR5 (UniProt O43504),inactive: -0.012,inactive: 0.03,inactive: -0.009,inactive: 0.235,inactive: 0.047,inactive: 0.082,inactive: -0.106,inactive: 0.081,inactive: -0.127,inactive: -0.026,inactive: 0.036,inactive: -0.067,inactive: 0.294,inactive: -0.131,inactive: 0.017,inactive: -0.097,inactive: 0.255,inactive: -0.024,inactive: 0.014,inactive: 0.224
LGALS1 (UniProt P09382),inactive: -0.005,inactive: 0.108,inactive: -0.031,inactive: -0.007,inactive: 0.057,inactive: -0.003,inactive: -0.009,inactive: 0.138,inactive: 0.003,inactive: 0.028,inactive: -0.026,inactive: 0.002,inactive: 0.017,inactive: -0.041,inactive: 0.011,inactive: -0.031,inactive: 0.006,inactive: 0.005,inactive: -0.004,inactive: -0.035
LMO2 isoform 3 (UniProt P25791),inactive: -0.007,inactive: -0.016,inactive: 0.014,inactive: 0.028,inactive: 0.014,inactive: 0.017,inactive: 0.081,inactive: -0.013,inactive: -0.014,inactive: 0,inactive: -0.014,inactive: 0.026,inactive: 0.02,inactive: 0,inactive: 0.066,inactive: 0.033,inactive: -0.007,inactive: 0.005,inactive: -0.05,inactive: 0.024
LDHA isoform 3 (UniProt P00338),inactive: 0.003,inactive: 0.055,inactive: -0.012,inactive: 0.002,inactive: 0.038,inactive: -0.005,inactive: 0.004,inactive: -0.009,inactive: -0.019,inactive: -0.016,inactive: -0.025,inactive: -0.02,inactive: -0.014,inactive: -0.081,inactive: 0.032,inactive: 0.042,inactive: -0.012,inactive: -0.009,inactive: -0.018,inactive: 0.007
